The other results are listed elsewhere or left out. Repeats are few or missing, and single values can be far off.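 Cells were imaged in 1,536-well plates, and nuclei stained with an antibody against cleaved PARP were counted against all DNA-stained nuclei to give the apoptosis fraction. Screening doses were chosen to leave most cells alive, and resting and induced cleaved-PARP levels differ strongly between cell lines.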

In the assay the test system is RVH-421. Nature of the assay: cleaved PARP positive nuclei fraction relative to DMSO control; melanoma cells; higher = more apoptosis. As to conditions: library dose: low library concentration; 72 h.
With `N#CC[C@H](C1CCCC1)n1cc(-c2ncnc3[nH]ccc23)cn1` [ruxolitinib] + C[C@]1(O)C[C@@H](c2nc(-c3ccc4ccc(-c5ccccc5)nc4c3)c3c(N)nccn32)C1 [OSI906] (first compound 1 µM, partner dose 0.4 µM), the “cleaved PARP positive nuclei fraction” value was 81.3%.

As to `Cc1cc(Nc2cc(N3CCN(C)CC3)nc(Sc3ccc(NC(=O)C4CC4)cc3)n2)n[nH]1` [Tozasertib] + CNC(=O)c1cc(Oc2ccc(NC(=O)Nc3ccc(Cl)c(C(F)(F)F)c3)cc2)ccn1 [sorafenib] (first compound 0.006 µM, partner dose 0.4 µM), the “cleaved PARP positive nuclei fraction” value was 74.3%.

For `Cc1ccc(Nc2nccc(N(C)c3ccc4c(C)n(C)nc4c3)n2)cc1S(N)(=O)=O` [Pazopanib] + CN1CCN(c2ccc3nc(-c4c(N)c5c(F)cccc5[nH]c4=O)[nH]c3c2)CC1 [Dovitinib] (first compound 0.4 µM, partner dose 0.1 µM), the “cleaved PARP positive nuclei fraction” value is 73.5%.

Take `Cc1cn(-c2cc(NC(=O)c3ccc(C)c(Nc4nccc(-c5cccnc5)n4)c3)cc(C(F)(F)F)c2)cn1` [nilotinib] + Cn1c(=O)n(-c2ccc(C(C)(C)C#N)cc2)c2c3cc(-c4cnc5ccccc5c4)ccc3ncc21 [NVP-BEZ235] (first compound 0.2 µM, partner dose 0.004 µM): the “cleaved PARP positive nuclei fraction” value is 63.8%.

As to `O=c1[nH]nc(Sc2ncc([N+](=O)[O-])s2)n1-c1ccc2c(c1)OCCO2` + C=CCNC1=C2C[C@@H](C)C[C@H](OC)[C@H](O)[C@@H](C)/C=C(\C)[C@H](OC(N)=O)[C@@H](OC)/C=C\C=C(/C)C(=O)NC(=CC1=O)C2=O [Tanespimycin] (first compound 0.2 µM, partner dose 0.002 µM), the “cleaved PARP positive nuclei fraction” value came to 142%.

`CCCCCCCCCCCCCCCCCCOP(=O)([O-])OC1CC[N+](C)(C)CC1` [Perifosine] + C#Cc1cccc(Nc2ncnc3cc(OCCOC)c(OCCOC)cc23)c1 [erlotinib] (first compound 0.4 µM, partner dose 0.8 µM): the “cleaved PARP positive nuclei fraction” value amounted to 170%.

Regarding `COc1cc([C@@H]2c3cc4c(cc3[C@@H](O[C@@H]3O[C@@H]5CO[C@@H](C)O[C@H]5[C@H](O)[C@H]3O)[C@H]3COC(=O)[C@H]23)OCO4)cc(OC)c1O` [etoposide] + C[C@]1(O)C[C@@H](c2nc(-c3ccc4ccc(-c5ccccc5)nc4c3)c3c(N)nccn32)C1 [OSI906] (first compound 0.02 µM, partner dose 0.4 µM), the “cleaved PARP positive nuclei fraction” value came out at 106%.

Turning to `CCCCCCCCCCCCCCCCCCOP(=O)([O-])OC1CC[N+](C)(C)CC1` [Perifosine] + C[C@@H](N)c1ccc(C(=O)Nc2ccnc3[nH]ccc23)cc1 [RKI983] (first compound 0.4 µM, partner dose 0.4 µM), the “cleaved PARP positive nuclei fraction” value was found to be 167%.

In the case of `CCCCCCCCCCCCCCCCCCOP(=O)([O-])OC1CC[N+](C)(C)CC1` [Perifosine] + CCCS(=O)(=O)Nc1ccc(F)c(C(=O)c2c[nH]c3ncc(Cl)cc23)c1F [PLX4720] (first compound 0.4 µM, partner dose 0.08 µM), the “cleaved PARP positive nuclei fraction” value worked out at 99.7%.

As to `O=C(/C=C/c1cccnc1)NCCCCC1CCN(C(=O)c2ccccc2)CC1` + Cc1cc(Nc2cc(N3CCN(C)CC3)nc(/C=C/c3ccccc3)n2)n[nH]1 [ENMD2076] (first compound 0.01 µM, partner dose 0.04 µM), the “cleaved PARP positive nuclei fraction” value stood at 71.8%.

As to `O=C(/C=C/c1cccnc1)NCCCCC1CCN(C(=O)c2ccccc2)CC1` + Clc1ccc(Nc2nnc(Cc3ccncc3)c3ccccc23)cc1 [vatalanib] (first compound 0.01 µM, partner dose 2 µM), the “cleaved PARP positive nuclei fraction” value amounted to 62.1%.

Turning to `Cc1cc(Nc2cc(N3CCN(C)CC3)nc(Sc3ccc(NC(=O)C4CC4)cc3)n2)n[nH]1` [Tozasertib] + CC1(C)CCC(c2ccc(Cl)cc2)=C(CN2CCN(c3ccc(C(=O)NS(=O)(=O)c4ccc(N[C@H](CCN5CCOCC5)CSc5ccccc5)c(S(=O)(=O)C(F)(F)F)c4)cc3)CC2)C1 [ABT263] (first compound 0.006 µM, partner dose 0.4 µM), the “cleaved PARP positive nuclei fraction” value turned out to be 222%.

As to `CCCCCCCCCCCCCCCCCCOP(=O)([O-])OC1CC[N+](C)(C)CC1` [Perifosine] + NC(=O)c1ccc(N(C(N)=O)c2c(F)cccc2F)nc1-c1ccc(F)cc1F [VX702] (first compound 0.4 µM, partner dose 0.4 µM), the “cleaved PARP positive nuclei fraction” value was found to be 104%.

For the compound `CCCCCCCCCCCCCCCCCCOP(=O)([O-])OC1CC[N+](C)(C)CC1` [Perifosine] + CC(=O)c1c(C)c2cnc(Nc3ccc(N4CCNCC4)cn3)nc2n(C2CCCC2)c1=O [palbociclib] (first compound 0.4 µM, partner dose 0.04 µM), the “cleaved PARP positive nuclei fraction” value amounted to 167%.

Regarding `Cc1ccc(Nc2nccc(N(C)c3ccc4c(C)n(C)nc4c3)n2)cc1S(N)(=O)=O` [Pazopanib] + O=C(O)c1ccc2c(c1)nc(Nc1cccc(Cl)c1)c1ccncc12 [CX4945] (first compound 0.4 µM, partner dose 0.4 µM), the “cleaved PARP positive nuclei fraction” value was found to be 64.5%.

For `Cc1cn(-c2cc(NC(=O)c3ccc(C)c(Nc4nccc(-c5cccnc5)n4)c3)cc(C(F)(F)F)c2)cn1` [nilotinib] + C=C(c1ccc(C(=O)O)cc1)c1cc2c(cc1C)C(C)(C)CCC2(C)C [Bexarotene] (first compound 0.2 µM, partner dose 2 µM), the “cleaved PARP positive nuclei fraction” value turned out to be 234%.

With `Cc1cc(Nc2cc(N3CCN(C)CC3)nc(Sc3ccc(NC(=O)C4CC4)cc3)n2)n[nH]1` [Tozasertib] + O=C(O)[C@@H]1[O][Sb](=[O])([O][Sb]2(=[O])[O][C@H]([C@H](O)CO)[C@H](O)[C@H](C(=O)O)[O]2)[O][C@H]([C@H](O)CO)[C@@H]1O [stibogluconate] (first compound 0.006 µM, partner dose 2 µM), the “cleaved PARP positive nuclei fraction” value was 89.4%.

Turning to `O=C(/C=C/c1cccnc1)NCCCCC1CCN(C(=O)c2ccccc2)CC1` + Nc1ccn([C@@H]2O[C@H](CO)[C@@H](O)C2(F)F)c(=O)n1 [gemcitabine] (first compound 0.01 µM, partner dose 0.0004 µM), the “cleaved PARP positive nuclei fraction” value came out at 181%.

In the case of `O=C(/C=C/c1cccnc1)NCCCCC1CCN(C(=O)c2ccccc2)CC1` + O=C(O)c1ccc2c(c1)nc(Nc1cccc(Cl)c1)c1ccncc12 [CX4945] (first compound 0.01 µM, partner dose 0.4 µM), the “cleaved PARP positive nuclei fraction” value came to 161%.

As to `O=C(/C=C/c1cccnc1)NCCCCC1CCN(C(=O)c2ccccc2)CC1` + Cc1ccc(Nc2nccc(N(C)c3ccc4c(C)n(C)nc4c3)n2)cc1S(N)(=O)=O [Pazopanib] (first compound 0.01 µM, partner dose 0.4 µM), the “cleaved PARP positive nuclei fraction” value was 92.7%.

For the compound `Cc1cc(Nc2cc(N3CCN(C)CC3)nc(Sc3ccc(NC(=O)C4CC4)cc3)n2)n[nH]1` [Tozasertib] + CC(C)C[C@H](NC(=O)[C@H](Cc1ccccc1)NC(=O)c1cnccn1)B(O)O [Bortezomib] (first compound 0.006 µM, partner dose 0.001 µM), the “cleaved PARP positive nuclei fraction” value came out at 124%.

As for `Cc1ccc(Nc2nccc(N(C)c3ccc4c(C)n(C)nc4c3)n2)cc1S(N)(=O)=O` [Pazopanib] + Cn1c(=O)n(-c2ccc(C(C)(C)C#N)cc2)c2c3cc(-c4cnc5ccccc5c4)ccc3ncc21 [NVP-BEZ235] (first compound 0.4 µM, partner dose 0.004 µM), the “cleaved PARP positive nuclei fraction” value came out at 201%.

Consider `Cc1cc(Nc2cc(N3CCN(C)CC3)nc(Sc3ccc(NC(=O)C4CC4)cc3)n2)n[nH]1` [Tozasertib] + CS(=O)(=O)CCNCc1ccc(-c2ccc3ncnc(Nc4ccc(OCc5cccc(F)c5)c(Cl)c4)c3c2)o1 [lapatinib] (first compound 0.006 µM, partner dose 0.8 µM), for which the “cleaved PARP positive nuclei fraction” value was 33.1%.

On to `Cc1ccc(Nc2nccc(N(C)c3ccc4c(C)n(C)nc4c3)n2)cc1S(N)(=O)=O` [Pazopanib] + Nc1nc(F)nc2c1ncn2[C@@H]1O[C@H](CO)[C@@H](O)[C@@H]1O [fludarabine] (first compound 0.4 µM, partner dose 0.2 µM), for which the “cleaved PARP positive nuclei fraction” value was 111%.

Take `N#CC[C@H](C1CCCC1)n1cc(-c2ncnc3[nH]ccc23)cn1` [ruxolitinib] + CC(=O)c1c(C)c2cnc(Nc3ccc(N4CCNCC4)cn3)nc2n(C2CCCC2)c1=O [palbociclib] (first compound 1 µM, partner dose 0.04 µM): the “cleaved PARP positive nuclei fraction” value was 59.5%.

For `O=C(Nc1cc(C(F)(F)F)cc(C(F)(F)F)c1)c1cc(Cl)ccc1O` + Nc1nc(F)nc2c1ncn2[C@@H]1O[C@H](CO)[C@@H](O)[C@@H]1O [fludarabine] (first compound 0.016 µM, partner dose 0.2 µM), the “cleaved PARP positive nuclei fraction” value was 56.9%.

For the compound `O=C(Nc1cc(C(F)(F)F)cc(C(F)(F)F)c1)c1cc(Cl)ccc1O` + O=C(/C=C/c1cccnc1)NCCCCC1CCN(C(=O)c2ccccc2)CC1 [FK866] (first compound 0.016 µM, partner dose 0.01 µM), the “cleaved PARP positive nuclei fraction” value was 82.8%.

The values are drawn from the supplement of paper PMC4604168 (melanoma cell lines).
